Measurements from doi:10.1101/2024.11.20.624454 (bioRxiv, 2024).
These are yes or no findings as the source states them, for the method shown. Where a sequence is shown, tags or fusion partners need not be part of it. Each block holds one binder with its values, some of them ahead of it.

Key:
[1] = target: T1, Mus musculus SPO11, MBP-tagged (Mus musculus, UniProt Q9WTK8 1-396); test: SEC-MALS
T1 sequence (looked up): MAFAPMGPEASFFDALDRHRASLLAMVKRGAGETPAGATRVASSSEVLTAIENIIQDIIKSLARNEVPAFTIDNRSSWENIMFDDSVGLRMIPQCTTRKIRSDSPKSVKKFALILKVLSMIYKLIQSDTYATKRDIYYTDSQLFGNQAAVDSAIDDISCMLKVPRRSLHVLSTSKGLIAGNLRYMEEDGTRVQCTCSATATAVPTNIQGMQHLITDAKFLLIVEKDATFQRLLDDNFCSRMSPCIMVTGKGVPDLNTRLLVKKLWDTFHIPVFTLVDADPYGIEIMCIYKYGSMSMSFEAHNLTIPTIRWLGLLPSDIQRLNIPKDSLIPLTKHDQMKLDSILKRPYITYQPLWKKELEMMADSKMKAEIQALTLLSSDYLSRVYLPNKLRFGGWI

[2] = target: MBPSPO11-HisFlagTOP6BL complex (1:1) (Mus musculus) (UniProt Q9WTK8+J3QMY9); test: SEC-MALS

- binding [1]: no binding (tested: 4 µM)
B1: Mus musculus SPO11, MBP-tagged (enzyme, UniProt Q9WTK8 1-396)
chain: T1 sequence (looked up)

- binding [2]: no binding
B2: MBPSPO11-HisFlagTOP6BL complex (1:1) (complex, UniProt Q9WTK8 1-396; J3QMY9 1-579)
chain 1: T1 sequence (looked up)
chain 2: MERTALAVCEILRYLIIHWKCEAGTAKGTLLDGQLVISIEALRSKHLPDSLHCIITIASTRSVYGGLNFKKFLQEIQPALPRLSAKLALASEEGGRSQDASGIAPCQVTFEVDENSQSLMTDCLVIKHFLRKIIIVHHKLKFSFSVAVNGTLSAETFGAENEPTLRLDNGVTLVVGFQRYVSKPKLNWSEAHCSRIHPVLGHPAPLFIPDAKADTGLLGELTLTPAAALCPSPKGFSSQLCRISSVSIFLYGPLGLPLLSSDQDQPSTAVFRDTSYFIDWKKYNLFMVPNLDLNLDTQSVLPDVNYKAESPEGNQSQNMNAQGPALLLFLFVDFQSDVPVQQAKIWGLHTLLTAHLSAILSESRSTVQQSIQSAVDQVWQLYHHDAKTQQRLQASLSVAVNSIMSVLTGSTRSSFRKTCLQALEAADTQEFGVKLHRIFYDITQHQFLKHCSCDTEQHLTPEKNISAQNTKDQHKNIAQEFPEESIGQAENKRPKRGSPNHGREESRVLGSARDRSPPKSATRDRELTEVSLTARGSQTQAAHGRAQAAEAASPAGGLEDLWLQEVSNLSEWLNPGHRS
